Measured values from publication PMC11145794.
These are yes or no findings as the source states them, for the method shown. In cells and extracts the contact can be indirect. Here binding means that the protein was enriched with, or labelled near, the bait; the list need not be complete. For some assays here: No binding means not detected with the bait. Where a sequence is shown, tags or fusion partners need not be part of it. One block for each molecule: values may come before it.

Columns and labels:
[1] = target: T1, TvTim22 with C-terminal di-HA tag (TvTim22-HA) (Trichomonas vaginalis) (UniProt A2DDM1); assay: affinity purification with mass spectrometry; native coIP of TvTim22-HA from isolated hydrogenosomes, crosslinker omitted; anti-HA Dynabeads; LFQ-MS against the parent strain
T1 sequence: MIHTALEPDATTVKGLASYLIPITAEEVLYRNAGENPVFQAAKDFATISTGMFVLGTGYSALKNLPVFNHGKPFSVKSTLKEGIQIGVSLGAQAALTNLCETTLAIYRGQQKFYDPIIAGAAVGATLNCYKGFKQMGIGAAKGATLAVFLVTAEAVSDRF

[2] = target: T1, TvTim22 with C-terminal di-HA tag (TvTim22-HA) (Trichomonas vaginalis); assay: affinity purification with mass spectrometry; TvTim22-HA complex from hydrogenosomes lysed with 1% digitonin or 1% Triton X-100, no crosslinker, anti-HA Dynabeads, eluted with HA peptide, Superose 6 size exclusion (132 kDa peak), SDS-PAGE, gel bands identified by MS
[3] = target: T1, TvTim22 with C-terminal di-HA tag (TvTim22-HA) (Trichomonas vaginalis); assay: affinity purification with mass spectrometry; isolated hydrogenosomes from strains expressing an HA-tagged TvTim17 family bait, crosslinked with 1 mM DSP (30 min, 25 °C), lysed in TSG buffer pH 7.2 with 1% digitonin or 1% Triton X-100; anti-HA Dynabeads; LFQ-MS against the non-transformed parent strain (FDR 0.05, S=1)
[4] = target: T2, TvTim23 with C-terminal di-HA tag (Trichomonas vaginalis) (UniProt A2E7V5); assay: as above
T2 sequence: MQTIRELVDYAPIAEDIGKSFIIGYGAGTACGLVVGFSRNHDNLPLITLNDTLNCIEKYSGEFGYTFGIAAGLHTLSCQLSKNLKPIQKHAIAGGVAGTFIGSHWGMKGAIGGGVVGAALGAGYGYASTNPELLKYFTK

[5] = target: T3, TvTim23-like with C-terminal di-HA tag (Trichomonas vaginalis) (UniProt A2DXD3); assay: as above
T3 sequence: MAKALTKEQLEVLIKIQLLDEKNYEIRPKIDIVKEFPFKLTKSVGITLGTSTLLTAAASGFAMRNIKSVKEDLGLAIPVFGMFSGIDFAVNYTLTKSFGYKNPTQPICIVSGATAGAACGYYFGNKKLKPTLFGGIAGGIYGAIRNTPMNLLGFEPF

[6] = target: T4, TvTim17-like with C-terminal di-HA tag (Trichomonas vaginalis) (UniProt A2DS29); assay: as above
T4 sequence: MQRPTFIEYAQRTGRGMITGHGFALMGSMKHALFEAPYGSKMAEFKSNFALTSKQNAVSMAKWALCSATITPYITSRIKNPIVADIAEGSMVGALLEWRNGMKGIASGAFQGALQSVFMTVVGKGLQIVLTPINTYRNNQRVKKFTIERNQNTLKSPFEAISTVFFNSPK

[7] = target: T5, TvTim22-like with C-terminal di-HA tag (Trichomonas vaginalis) (UniProt A2FHN8); assay: as above
T5 sequence: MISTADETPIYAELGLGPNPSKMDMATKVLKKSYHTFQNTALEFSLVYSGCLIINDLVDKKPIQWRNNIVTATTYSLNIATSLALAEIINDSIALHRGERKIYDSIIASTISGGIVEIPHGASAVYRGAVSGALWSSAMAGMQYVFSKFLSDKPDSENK

binding [1]: binds | binding [2]: binds | binding [3]: binds | binding [4]: binds
Molecule: Hsp70-1

binding [1]: binds | binding [3]: binds | binding [5]: binds
Molecule: Pam16

binding [1]: binds | binding [3]: binds | binding [4]: binds
Molecule: Pam18

binding [5]: binds
B3: TvTim22 with C-terminal di-HA tag (TvTim22-HA) (protein, UniProt A2DDM1 1-160)
chain: T1 sequence

binding [5]: binds
B5: TvTim23 with C-terminal di-HA tag (protein, UniProt A2E7V5 1-139)
chain: T2 sequence

The next lines start with the molecule.

Molecule: Tim9-10A
binding [6]: no binding

Molecule: Tim9-10B
binding [6]: no binding

Molecule: Tim9-10C
binding [6]: no binding

Molecule: Tim9-10D
binding [6]: no binding

Molecule: hydrogenosomal processing peptidase (HPP), α subunit
binding [1]: binds | binding [3]: binds

Molecule: hydrogenosomal processing peptidase (HPP), β subunit
binding [1]: binds | binding [3]: binds

B1: Tim44 (endogenous) (protein, UniProt A2F7V1 1-326)
chain: MISTLSQHGGFSGVRYASVFTNFMDNIGRNLSENQEVTTWMNGLKNDPLVKLTAGVVEEAAFYGKTALNAGTAITKVAVWPITYPLSFIIKKNPYTLVPCPFPAAQVSFEVESKGDLVLRKQNLIEKFIYKLKNVKNAASVSKNAFIRVPFQALANASSVVVSKLTQPSKEQLVQMSIQMYYPTFTISEFKQWIEKSFLPVLLERYLRGNIKQLEELTSQQVAKERQLAVVQFLSNRLIIRTKLLSITDVDIMGFDFTNRMPSILVRCSADHTNEVITMNSGTIVEGGPQDICHTDFLVVLTIDASKDTPRWIASELRPDSTSNRI
binding [1]: binds | binding [2]: binds | binding [3]: binds | binding [4]: binds

B2: TvTim23-like with C-terminal di-HA tag (protein, UniProt A2DXD3 1-157)
chain: T3 sequence
binding [1]: binds | binding [3]: binds | binding [4]: binds

B4: AAC1 (endogenous) (protein, UniProt A0A8U0WPE5 1-316)
chain: MAQPAEQILIATSPKPSLSPVERLSVGFIAGTLSRTLTSPLDVVKMLMQVSSRGGSAKDTIAQLWKEQGIAGFWRGNWAACIRLGPQSAIKFYAYEELEKRIGKGKPLVGIQRTVFGSLSGVISQVLTYPLDVIRTRITVYSGKYTGIFNCAFTMLKEEGFTSLFAGIVPTVMGVIPYEGAQFYAYGGLKQLYTTKIAPGKPISPWANCLIGAAAGMFSQTFSYPFDVIRKRMMLKDEKGKPIYSGMMQAFSTVYAKEGVAGLYRGVGLNLIKVVPFAALQFTILEETRRAFFKVRAAIDQKKVEEIKGKVAPKKK
binding [1]: binds | binding [3]: binds

B6: TvTim17-like with C-terminal di-HA tag (protein, UniProt A2DS29 1-170)
chain: T4 sequence
binding [1]: binds | binding [2]: binds | binding [3]: binds | binding [7]: binds | binding [4]: binds | binding [5]: binds
